Experimental data as given in US8598314B2 (priority 2007, dated 2013).

What was measured:
[1] = general procedure: Fmoc solid-phase peptide synthesis; modified trityl resin; p-nitrophenyl carbonate Wang resin; Rink amide resin; HBTU/HOBt; conditions: whole synthesis
[2] = general procedure: Fmoc solid-phase peptide synthesis; p-nitrophenyl carbonate Wang resin; HBTU/HOBt; conditions: whole synthesis, scale 100 umol

“[^14Leu,^25Phe]Exendin-4(1-28)-Gly-Gly-CONH-Lisinopril diacid” showed an isolated mass ([1]; scale 110 umol) of 23.3 mg and an isolated yield ([1]; scale 110 umol) of 5.7%.

GLP-1(7-37)-γ-Abu-N^ε2Lys-(Pyr)-WAP-OH showed an isolated mass ([1]; scale 340 umol) of 8.5 mg and an isolated yield ([1]; scale 340 umol) of 2.1% yield.

“[^14Leu,^25Phe]Exendin-4(1-28)-γ-Abu-CONH-lisinopril diacid” showed an isolated mass ([1]; scale 110 umol) of 21 mg and an isolated yield ([1]; scale 110 umol) of 5.5%.

For “[^14Leu,^28Gln]Exendin-4-(1-32)-fGLP-1-(33-37)-miniPEG-(S)-2,6-diamino-1-(pyrrolidin-2-cyano-1-yl)hexan-1- amide”, the isolated mass [2] was 49.5 mg and the isolated yield [2] was 16%.
